According to article PMC6619347:
No constants are given. Whether binding was seen depends on the method and setting. Binding seen in cells or lysates may run through a third protein. For part of these data: Binding can be weak; no strength is given.

The chains behind the UniProt entries cited, without tags or fusion partners.
UniProt P35222: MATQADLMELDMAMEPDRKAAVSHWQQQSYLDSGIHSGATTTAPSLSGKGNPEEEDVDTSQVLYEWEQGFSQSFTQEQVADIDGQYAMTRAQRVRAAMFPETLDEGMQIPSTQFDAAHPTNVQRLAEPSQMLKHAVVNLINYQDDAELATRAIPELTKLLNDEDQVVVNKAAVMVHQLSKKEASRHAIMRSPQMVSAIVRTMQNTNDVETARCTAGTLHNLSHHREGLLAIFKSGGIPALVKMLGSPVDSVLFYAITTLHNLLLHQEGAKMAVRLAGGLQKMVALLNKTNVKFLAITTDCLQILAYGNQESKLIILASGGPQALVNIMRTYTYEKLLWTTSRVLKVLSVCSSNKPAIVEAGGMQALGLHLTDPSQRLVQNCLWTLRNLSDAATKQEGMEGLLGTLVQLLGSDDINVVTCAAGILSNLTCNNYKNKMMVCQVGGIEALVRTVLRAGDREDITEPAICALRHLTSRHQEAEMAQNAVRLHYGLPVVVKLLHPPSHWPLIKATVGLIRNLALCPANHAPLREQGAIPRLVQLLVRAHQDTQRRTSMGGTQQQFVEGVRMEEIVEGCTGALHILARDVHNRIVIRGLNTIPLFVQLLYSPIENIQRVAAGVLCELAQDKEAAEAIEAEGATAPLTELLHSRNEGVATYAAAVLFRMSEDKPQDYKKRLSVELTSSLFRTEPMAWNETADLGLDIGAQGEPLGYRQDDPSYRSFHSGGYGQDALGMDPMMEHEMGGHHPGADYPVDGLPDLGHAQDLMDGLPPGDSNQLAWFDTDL
UniProt P63208: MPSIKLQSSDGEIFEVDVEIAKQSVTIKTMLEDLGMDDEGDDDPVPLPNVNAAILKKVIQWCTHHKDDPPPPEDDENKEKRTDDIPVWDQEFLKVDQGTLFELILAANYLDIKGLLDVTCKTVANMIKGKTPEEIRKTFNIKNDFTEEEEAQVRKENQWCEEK

How the values were obtained:
DDK‐ΔF‐FBXO16 (human) = DDK‐ΔF‐FBXO16 (human) (UniProt Q8IX29); experiment: co-IP; MDA‐MB‐231 cells coexpressing GFP‐β‐catenin with DDK‐FBXO16 or DDK‐ΔF‐FBXO16 for 36 h, then 5 μM MG132 for 6 h; whole‐cell lysates immunoprecipitated with anti‐DDK antibody, immunoblot
DDK‐FBXO16 (human) = target: T1, DDK‐FBXO16 (human) (UniProt Q8IX29); experiment: co-IP; cells coexpressing DDK‐FBXO16 and β‐catenin deletion mutants; 40 h after transfection 5 μM MG132 for 6 h; whole‐cell extracts immunoprecipitated with anti‐DDK antibody, immunoblot
T1 sequence: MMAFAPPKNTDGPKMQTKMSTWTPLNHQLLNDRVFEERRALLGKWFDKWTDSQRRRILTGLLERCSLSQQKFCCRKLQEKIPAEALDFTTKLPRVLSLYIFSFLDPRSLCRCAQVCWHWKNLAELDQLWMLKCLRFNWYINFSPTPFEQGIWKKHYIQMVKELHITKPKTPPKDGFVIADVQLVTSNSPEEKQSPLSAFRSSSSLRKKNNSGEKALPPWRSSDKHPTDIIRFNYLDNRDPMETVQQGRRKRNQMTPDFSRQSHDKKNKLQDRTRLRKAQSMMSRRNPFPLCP

Substance | binding (DDK‐ΔF‐FBXO16 (human)) | binding (DDK‐FBXO16 (human))
GFP‐WT‐β‐catenin (from UniProt P35222 1-781) | binds | 
GFP‐ΔC‐β‐catenin (domain or fragment) |  | no binding
SKP1 (from UniProt P63208 1-163) | no binding | 
